Results are given in words; binding and its absence hold for the method and conditions named. In cells and extracts the contact can be indirect. Some binding calls cover weakened binding; strength is not graded here. For some of these results: Tags and fused reporters may be left off the sequences shown.
T1: zebrafish mediator of IFN regulatory factor 3 activation (MITA), full-length, in HEK 293T cells (zebrafish) (UniProt E7F4N7)
T1 sequence: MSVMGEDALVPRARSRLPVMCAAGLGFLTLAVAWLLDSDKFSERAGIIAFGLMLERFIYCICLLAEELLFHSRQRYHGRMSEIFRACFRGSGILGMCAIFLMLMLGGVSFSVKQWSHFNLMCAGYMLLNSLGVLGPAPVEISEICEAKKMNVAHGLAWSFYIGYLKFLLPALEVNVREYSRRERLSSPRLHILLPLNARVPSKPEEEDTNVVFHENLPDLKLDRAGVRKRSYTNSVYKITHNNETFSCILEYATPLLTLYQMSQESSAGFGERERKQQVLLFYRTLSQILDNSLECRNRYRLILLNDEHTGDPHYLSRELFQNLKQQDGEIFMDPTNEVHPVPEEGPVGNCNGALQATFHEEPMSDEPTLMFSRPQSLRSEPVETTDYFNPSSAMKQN

T2: zebrafish mediator of IFN regulatory factor 3 activation (MITA), Flag-tagged (zebrafish) (UniProt E7F4N7)
T2 sequence: T1 sequence

B1: zebrafish transmembrane protein 33 (TMEM33), full-length, in HEK 293T cells (protein, UniProt A0A8M1PJV5 1-252)
chain: MADTEQRSPPPPPPPQAGAAQFLLSNKLETAMWLSRLFTVYCSIMFILPLLGPQAAANFYQRALLANALTSALRLHQRLPHFQLSRAFLAQALQEDSCHYLLYSLILVNSYPITMSIFPVFLFSLLHATTYTKKVLDTMGPNSLMFVRNFLNKLTSNQQNILKFIACNEIFLMPATVFMLFSGQGSLLQPFIYYRFLTLRYSSRRNPYCRTLFTELRILLEHFVMKPSCPVFFRRMCLNSIAFVSRLAPTGV
B2: zebrafish transmembrane protein 33 (TMEM33), Myc-tagged (protein, UniProt A0A8M1PJV5 1-252)
chain: B1 chain
B3: zebrafish mediator of IFN regulatory factor 3 activation (MITA), HA-tagged (protein, UniProt E7F4N7 1-398)
chain: T1 sequence
B4: zebrafish transmembrane protein 33 (TMEM33), HA-tagged (protein, UniProt A0A8M1PJV5 1-252)
chain: B1 chain

Assays:
[1] = biological target: T1, zebrafish mediator of IFN regulatory factor 3 activation (MITA), full-length, in HEK 293T cells (zebrafish); assay: co-IP; HEK 293T cells co-transfected (5 μg each plasmid), 24 h; RIPA lysis buffer; anti-Flag or anti-Myc affinity gel overnight at 4°C; immunoblot
[2] = biological target: zebrafish TANK binding kinase 1 (TBK1), wild-type, in HEK 293T cells (zebrafish); assay: as above
[3] = biological target: zebrafish TANK binding kinase 1 (TBK1), Flag-tagged (zebrafish); assay: co-IP; EPC cells co-transfected; lysates immunoprecipitated with anti-Flag affinity gel, immunoblot of the tagged partner
[4] = biological target: T2, zebrafish mediator of IFN regulatory factor 3 activation (MITA), Flag-tagged (zebrafish); assay: as above
[5] = biological target: zebrafish TANK binding kinase 1 (TBK1), Flag-tagged (zebrafish); assay: co-IP; EPC cells co-transfected with TBK1-Flag and MITA-HA or IRF3-Myc together with TMEM33 (2 or 4 μg); anti-Flag affinity gel; immunoblot

Binder | binding [1] | binding [2] | binding [3] | binding [4] | binding [5]
B1 | binds | binds |  |  | 
B2 |  |  | binds | binds | 
B3 |  |  | binds |  | binds
B4 |  |  |  |  | binds

Reference: PMC7891750
